Primary screen of a compound library

Measurements from “University of Dundee, Small-Polar-MMV Screening Library” (2021), ChEMBL document CHEMBL3988442.

Results are given as percent effect.
The record does not define 0% and 100%; most values in the screen are far below 50% and negative numbers occur (in some assays of this library far below -100).
The compounds are a random part of those screened.

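Whole-cell growth test on Mycobacterium tuberculosis, read after 3 days in glucose-containing 7H9 medium; the read-out is not stated. Tested at 500 µM. Higher reads as more growth inhibition (inferred: compounds with an IC50 in retests scored well above the rest). About 18,000 compounds were tested under these conditions; 7.9% (about 1,400) showed 50% or more at least once.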

SMILES: O=C(NCc1cc(F)cc(Br)c1)C1COCCN1 (centres unmarked)
percent effect: 26.5

SMILES: COc1ccccc1OC(C)CN (centres unmarked)
percent effect: 87.48

SMILES: Cc1cc2cc(C(=O)NCCOC(N)=O)oc2cc1C
percent effect: 3.806

SMILES: O=C(CC1CCS(=O)(=O)C1)NCc1cc(F)ccc1F (centres unmarked)
percent effect: 8.619

SMILES: CC(=O)c1ccc(Br)o1
percent effect: 6.459

SMILES: COCC(=O)N1CCN(C)Cc2ccccc21
percent effect: -2.006

SMILES: CN1CCN(c2ccc3ccccc3n2)CC(O)C1 (centres unmarked)
percent effect: 44.8

SMILES: O=S1(=O)CCC(NC2CCCC2)C1 (centres unmarked)
percent effect: -14.13

SMILES: CC(C)C(=O)N1CCCC1C(=O)Nc1ccc(F)cc1 (centres unmarked)
percent effect: 11.54

SMILES: COc1c(C)cnc(CN(C)S(N)(=O)=O)c1C
percent effect: 0.2979

SMILES: CC(C)OCC(O)CN1CCN(C(C)C)CC1 (centres unmarked)
percent effect: -10.29

SMILES: CC(=O)NCCNc1c(C)c(C)nc2ccccc12
percent effect: -18.93

SMILES: CC1CN(c2nccc(N(C)C)n2)CCS1(=O)=O (centres unmarked)
percent effect: 16.12

SMILES: N#Cc1cccc(NCC(=O)NCc2ccco2)c1
percent effect: 70.34

SMILES: CC(C)n1nc(C(=O)N(C)C)c2ccccc2c1=O
percent effect: 21.48

SMILES: CC(C)(C)OC(=O)NCC(C)(N)C1CC1 (centres unmarked)
percent effect: 6.153

SMILES: c1cc(SCCOCC2CCCO2)ccn1 (centres unmarked)
percent effect: 28.9

SMILES: CC1(CN)CCCN1Cc1ccccc1 (centres unmarked)
percent effect: -4.87

SMILES: CC(C)N1CC(O)C1
percent effect: 6.121

SMILES: COc1ccc(OC)c(C(O)CN2CCNC(=O)C2)c1 (centres unmarked)
percent effect: 23.22

SMILES: CS(=O)(=O)N1CCN(CCCOc2ccccc2)CC1
percent effect: 7.518

SMILES: CCOc1nn(C)cc1N
percent effect: 23.3

SMILES: O=C(c1cccc(C(F)(F)F)c1)N1CCC(O)CC1
percent effect: 19.02

SMILES: O=C(NCCc1ccc(F)cc1F)NCC1(CO)CC1
percent effect: 4.996

SMILES: COc1ccc(C)cc1NC(=O)Cn1cccn1
percent effect: 39.73

SMILES: CCC(C)NC(=O)c1cnn(-c2ccccc2)n1 (centres unmarked)
percent effect: -4.801

SMILES: C=C(Cl)CNC(=O)CNC(=O)Cc1ccc(O)cc1
percent effect: 15.92

SMILES: CN(C)C(=O)CCc1ccc2c(c1)OCCO2
percent effect: 39.66

SMILES: Cc1cc(NC(=O)CN2CCCCC2)no1
percent effect: 7.389

SMILES: CCN1CCC(NC(=O)Cc2ccccc2F)CC1
percent effect: 5.55

SMILES: O=S(=O)(c1cccnc1)N1CCOCC1
percent effect: 4.835

SMILES: CC(CN)N(C)C(=O)Cc1ccc(F)c(F)c1 (centres unmarked)
percent effect: -6.146

SMILES: CCc1ccsc1C(N)=O
percent effect: -3.551

SMILES: CCn1ccnc1C1CCN(C(=O)CNC)CC1
percent effect: -7.125

SMILES: Nc1nnc(SCc2ccno2)s1
percent effect: 6.598

SMILES: Cc1ccc2nc(CN3CCOCS3(=O)=O)cn2c1
percent effect: 12.19

SMILES: NCC1CCC2(CCCCC2)O1 (centres unmarked)
percent effect: 11.64

SMILES: CC(C)c1cccc(NC(=O)CN2CCC(O)CC2)c1
percent effect: 66.47